Reference: US20210196899A1, “MICRONEEDLE COATED WITH DRUG AND MANUFACTURING METHOD FOR SAME” (SR BIOTEK INC., priority 2018, published 2021)
At least one peptide structure holds a part that was inferred or is arguable (an end, a ring closure or a residue). Residues, ends and D or L forms follow the SMILES beside them.

Tested on: Fibroblasts (CCD-986SK)
Test: Measurement of collagen content in cell line (Procollagen type I peptide EIA kit)
Assay type: cell-based
Conditions: FIG. 4
Description: The culture supernatant was collected and the amount of collagen was measured as described below according to the guidelines of the Ministry of Food and Drug Safety, and the results thereof are shown in FIG. 4.
100 μl of an antibody-PoD conjugate solution was placed in each well, after which the culture solution and a standard solution were added in an amount of 20 μL thereto and cultured at 37° C. for 3 hr. The culture solution was removed from the well, followed by washing four times with 400 μL of a phosphate-buffered saline (PBS). 100 μL of a color development reagent (Procollagen type I peptide EIA kit, Takara Biomedical Co.) was added thereto, followed by culture at room temperature for 15 min, addition with 100 μL of 1 N sulfuric acid, and measurement at 450 nm using an ELISA reader.

## NCCCC[C@H](NC(=O)[C@H](Cc1c[nH]cn1)NC(=O)CN)C(=O)O [GHK] (H-Gly-His-Lys-OH)
CCD-986SK fibroblasts
  concentration at which the function (collagen synthesis promotion) is exhibited: relatively high concentration
Concentration of 80 ppm or less, 24 hr
  collagen synthesis and promotion of fibroblasts: did not occur
